The list shows a part of the results.
What was measured:
Assay in all cases: log2 fold change, soluble protein after heating vs DMSO (PISA); higher = thermal stabilisation; K562 cells, 10 uM, 30 min; active = over 0.2 and 3.5 SD of the protein, either way, in both replicates (recomputed)
[1] = compound: NC(=O)Nc1cc(-c2cccc(F)c2)sc1C(=O)N[C@H]1CCCNC1
Outline: (§1)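 K562 cells (2×10^6 cells/mL) were treated with 10 μM compound for 30 min, and aliquots were heated for 3 min over 48°C-58°C. Pooled aliquots were extracted in PBS with 0.5% NP-40 at 4°C, and the supernatant after 21,000xg for 90 min was measured by TMTpro 16plex LC-MS/MS with channel sums equalised. Reported thermal stability, relative to control samples and from duplicates, is a log2 fold change.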

Amino acid sequences for entries named in this document (tags omitted). A change or cut given only in a name is not applied to a line headed by its entry.
UniProt O14656: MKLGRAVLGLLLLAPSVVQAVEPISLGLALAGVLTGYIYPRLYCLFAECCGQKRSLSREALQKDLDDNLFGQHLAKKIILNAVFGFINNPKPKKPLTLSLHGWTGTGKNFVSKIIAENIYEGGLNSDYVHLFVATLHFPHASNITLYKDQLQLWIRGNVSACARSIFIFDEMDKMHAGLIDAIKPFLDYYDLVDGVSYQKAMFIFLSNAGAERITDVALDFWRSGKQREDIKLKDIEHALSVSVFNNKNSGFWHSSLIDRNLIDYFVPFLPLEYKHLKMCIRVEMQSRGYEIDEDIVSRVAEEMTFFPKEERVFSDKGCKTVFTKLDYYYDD
UniProt P51580: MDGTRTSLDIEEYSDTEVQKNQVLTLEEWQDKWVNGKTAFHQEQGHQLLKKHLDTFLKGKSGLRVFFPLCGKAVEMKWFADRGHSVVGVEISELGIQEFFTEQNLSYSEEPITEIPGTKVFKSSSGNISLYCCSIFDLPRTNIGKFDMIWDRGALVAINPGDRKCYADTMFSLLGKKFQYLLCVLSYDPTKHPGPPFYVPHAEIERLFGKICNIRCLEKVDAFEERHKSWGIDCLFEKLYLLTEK
UniProt Q5JTV8: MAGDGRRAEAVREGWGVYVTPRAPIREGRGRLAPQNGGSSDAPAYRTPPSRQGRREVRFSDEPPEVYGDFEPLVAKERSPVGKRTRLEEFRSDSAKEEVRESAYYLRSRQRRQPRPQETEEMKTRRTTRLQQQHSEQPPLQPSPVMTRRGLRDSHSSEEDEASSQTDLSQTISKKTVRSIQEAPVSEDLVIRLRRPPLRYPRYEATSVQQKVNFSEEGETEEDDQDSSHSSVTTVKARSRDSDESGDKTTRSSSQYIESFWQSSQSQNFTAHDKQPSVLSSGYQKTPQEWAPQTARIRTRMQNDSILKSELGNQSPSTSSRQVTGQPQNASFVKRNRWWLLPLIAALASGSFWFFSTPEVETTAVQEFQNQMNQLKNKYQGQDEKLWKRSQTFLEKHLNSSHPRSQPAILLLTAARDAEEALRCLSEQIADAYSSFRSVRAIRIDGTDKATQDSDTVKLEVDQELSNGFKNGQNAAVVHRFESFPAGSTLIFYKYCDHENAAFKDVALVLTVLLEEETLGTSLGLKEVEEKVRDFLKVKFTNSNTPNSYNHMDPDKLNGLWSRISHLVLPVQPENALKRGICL
UniProt Q969M1: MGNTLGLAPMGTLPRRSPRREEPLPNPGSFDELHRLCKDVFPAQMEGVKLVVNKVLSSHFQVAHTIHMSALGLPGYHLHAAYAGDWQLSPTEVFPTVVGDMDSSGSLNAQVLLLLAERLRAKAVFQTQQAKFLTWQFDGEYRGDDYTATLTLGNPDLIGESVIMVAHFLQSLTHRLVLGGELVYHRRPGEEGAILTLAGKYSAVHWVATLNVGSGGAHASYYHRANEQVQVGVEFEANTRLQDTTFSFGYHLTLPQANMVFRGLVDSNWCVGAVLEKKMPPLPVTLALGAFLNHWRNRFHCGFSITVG
UniProt Q15643: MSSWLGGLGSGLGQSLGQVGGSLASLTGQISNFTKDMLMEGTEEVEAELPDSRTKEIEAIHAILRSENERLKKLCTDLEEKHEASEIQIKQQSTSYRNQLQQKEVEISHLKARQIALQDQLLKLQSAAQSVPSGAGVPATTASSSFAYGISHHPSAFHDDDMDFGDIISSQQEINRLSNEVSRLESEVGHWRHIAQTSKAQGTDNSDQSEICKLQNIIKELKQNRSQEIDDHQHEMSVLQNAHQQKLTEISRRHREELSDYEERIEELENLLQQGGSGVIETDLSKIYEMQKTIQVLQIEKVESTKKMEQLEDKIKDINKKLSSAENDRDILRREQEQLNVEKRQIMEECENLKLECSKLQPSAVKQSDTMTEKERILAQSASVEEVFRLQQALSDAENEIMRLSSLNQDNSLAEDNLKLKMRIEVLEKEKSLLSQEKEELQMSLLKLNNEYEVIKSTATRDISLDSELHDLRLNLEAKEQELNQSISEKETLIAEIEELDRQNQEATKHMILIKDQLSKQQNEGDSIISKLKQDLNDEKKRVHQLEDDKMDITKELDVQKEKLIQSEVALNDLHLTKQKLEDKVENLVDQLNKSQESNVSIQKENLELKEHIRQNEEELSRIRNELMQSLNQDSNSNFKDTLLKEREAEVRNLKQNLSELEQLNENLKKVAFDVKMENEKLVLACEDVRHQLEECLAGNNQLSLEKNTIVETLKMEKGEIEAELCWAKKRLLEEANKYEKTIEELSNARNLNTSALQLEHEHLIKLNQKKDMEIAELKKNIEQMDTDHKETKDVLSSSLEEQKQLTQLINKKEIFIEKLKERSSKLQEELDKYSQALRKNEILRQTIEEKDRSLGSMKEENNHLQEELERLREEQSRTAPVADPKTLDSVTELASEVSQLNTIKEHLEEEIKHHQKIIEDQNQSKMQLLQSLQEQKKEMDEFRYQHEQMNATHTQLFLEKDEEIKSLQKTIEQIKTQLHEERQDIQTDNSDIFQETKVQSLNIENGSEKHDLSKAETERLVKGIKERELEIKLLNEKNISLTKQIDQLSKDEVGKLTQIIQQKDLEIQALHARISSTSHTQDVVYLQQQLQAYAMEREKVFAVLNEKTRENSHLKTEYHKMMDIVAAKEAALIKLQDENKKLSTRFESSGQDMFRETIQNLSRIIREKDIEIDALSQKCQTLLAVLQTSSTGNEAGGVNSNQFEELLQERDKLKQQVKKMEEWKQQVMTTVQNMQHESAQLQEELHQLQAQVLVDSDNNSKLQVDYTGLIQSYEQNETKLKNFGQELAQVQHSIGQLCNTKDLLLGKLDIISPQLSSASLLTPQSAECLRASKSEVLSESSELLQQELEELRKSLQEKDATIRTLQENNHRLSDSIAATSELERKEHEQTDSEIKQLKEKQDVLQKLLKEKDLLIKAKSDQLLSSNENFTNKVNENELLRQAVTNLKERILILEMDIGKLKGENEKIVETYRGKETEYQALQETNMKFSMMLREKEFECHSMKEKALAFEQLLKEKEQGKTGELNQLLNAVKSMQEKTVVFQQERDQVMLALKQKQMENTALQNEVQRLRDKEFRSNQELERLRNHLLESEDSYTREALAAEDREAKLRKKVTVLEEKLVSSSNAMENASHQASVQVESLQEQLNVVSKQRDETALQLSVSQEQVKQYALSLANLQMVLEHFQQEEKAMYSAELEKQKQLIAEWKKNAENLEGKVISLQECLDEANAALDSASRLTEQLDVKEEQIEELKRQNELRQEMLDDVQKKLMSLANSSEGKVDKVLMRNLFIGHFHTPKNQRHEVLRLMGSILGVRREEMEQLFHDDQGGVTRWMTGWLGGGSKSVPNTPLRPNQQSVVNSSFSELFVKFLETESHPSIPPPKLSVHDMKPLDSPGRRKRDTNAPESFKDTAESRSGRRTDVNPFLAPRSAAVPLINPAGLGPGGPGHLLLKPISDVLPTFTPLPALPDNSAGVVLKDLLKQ
UniProt Q9BSV6: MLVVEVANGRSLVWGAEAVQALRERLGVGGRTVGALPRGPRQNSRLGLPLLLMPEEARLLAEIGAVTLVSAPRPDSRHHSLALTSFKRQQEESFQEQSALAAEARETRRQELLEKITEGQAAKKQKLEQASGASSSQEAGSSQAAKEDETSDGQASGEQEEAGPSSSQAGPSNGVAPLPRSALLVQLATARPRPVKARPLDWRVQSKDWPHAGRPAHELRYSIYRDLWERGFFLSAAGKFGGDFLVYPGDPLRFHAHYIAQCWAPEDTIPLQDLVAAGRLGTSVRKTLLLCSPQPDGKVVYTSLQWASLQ
UniProt Q86W33: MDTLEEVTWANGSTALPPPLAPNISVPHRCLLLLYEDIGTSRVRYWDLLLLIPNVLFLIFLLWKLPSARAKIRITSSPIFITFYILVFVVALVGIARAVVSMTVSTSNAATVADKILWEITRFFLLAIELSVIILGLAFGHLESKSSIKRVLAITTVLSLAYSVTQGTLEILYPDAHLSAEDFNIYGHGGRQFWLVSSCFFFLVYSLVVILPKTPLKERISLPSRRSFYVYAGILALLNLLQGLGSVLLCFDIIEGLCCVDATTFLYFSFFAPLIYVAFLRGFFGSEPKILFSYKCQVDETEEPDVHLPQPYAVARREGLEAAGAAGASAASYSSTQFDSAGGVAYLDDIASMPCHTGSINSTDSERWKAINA
UniProt Q9Y296, whole entry, looked up: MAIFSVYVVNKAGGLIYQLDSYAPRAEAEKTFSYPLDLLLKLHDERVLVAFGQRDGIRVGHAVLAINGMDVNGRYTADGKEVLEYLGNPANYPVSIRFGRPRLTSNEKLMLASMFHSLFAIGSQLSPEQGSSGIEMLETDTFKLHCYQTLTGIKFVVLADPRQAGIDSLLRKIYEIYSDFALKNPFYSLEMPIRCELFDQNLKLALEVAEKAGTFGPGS
UniProt O00635: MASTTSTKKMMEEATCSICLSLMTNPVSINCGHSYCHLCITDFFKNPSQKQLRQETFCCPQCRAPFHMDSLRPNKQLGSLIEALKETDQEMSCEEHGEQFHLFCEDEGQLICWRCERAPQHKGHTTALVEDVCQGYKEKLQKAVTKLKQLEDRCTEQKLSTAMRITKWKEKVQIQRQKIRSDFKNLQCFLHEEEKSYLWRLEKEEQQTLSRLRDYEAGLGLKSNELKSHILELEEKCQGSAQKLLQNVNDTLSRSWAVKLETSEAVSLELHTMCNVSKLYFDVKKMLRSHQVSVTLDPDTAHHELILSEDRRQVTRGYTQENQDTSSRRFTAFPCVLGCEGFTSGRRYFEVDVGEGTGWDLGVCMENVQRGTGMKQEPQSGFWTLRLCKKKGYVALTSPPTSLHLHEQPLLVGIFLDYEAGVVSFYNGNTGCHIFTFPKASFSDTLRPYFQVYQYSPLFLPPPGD
UniProt Q9P0U1: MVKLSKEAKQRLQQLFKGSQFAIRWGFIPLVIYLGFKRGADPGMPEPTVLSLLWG
UniProt Q86TN4: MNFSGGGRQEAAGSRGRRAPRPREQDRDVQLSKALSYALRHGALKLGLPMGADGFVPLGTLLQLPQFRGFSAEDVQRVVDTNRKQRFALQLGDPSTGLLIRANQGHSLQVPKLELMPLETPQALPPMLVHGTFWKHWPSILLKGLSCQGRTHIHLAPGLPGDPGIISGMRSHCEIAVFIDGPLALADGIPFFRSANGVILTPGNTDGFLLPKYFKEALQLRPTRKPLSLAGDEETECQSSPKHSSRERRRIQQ
UniProt Q15650: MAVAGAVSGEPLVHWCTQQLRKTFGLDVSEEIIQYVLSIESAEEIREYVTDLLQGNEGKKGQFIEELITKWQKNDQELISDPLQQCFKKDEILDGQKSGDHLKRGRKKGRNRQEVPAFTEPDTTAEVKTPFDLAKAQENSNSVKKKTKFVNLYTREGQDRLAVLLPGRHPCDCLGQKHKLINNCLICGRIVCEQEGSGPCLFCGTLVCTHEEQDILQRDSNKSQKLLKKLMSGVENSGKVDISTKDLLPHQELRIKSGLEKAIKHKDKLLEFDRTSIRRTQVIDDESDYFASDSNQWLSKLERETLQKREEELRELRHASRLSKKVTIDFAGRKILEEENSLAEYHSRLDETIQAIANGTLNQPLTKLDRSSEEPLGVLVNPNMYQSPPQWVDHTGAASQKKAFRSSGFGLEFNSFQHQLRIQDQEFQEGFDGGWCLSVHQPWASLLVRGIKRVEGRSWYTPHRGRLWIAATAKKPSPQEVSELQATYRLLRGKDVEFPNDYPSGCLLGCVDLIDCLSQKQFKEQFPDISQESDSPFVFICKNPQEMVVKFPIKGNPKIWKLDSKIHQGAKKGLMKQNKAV
UniProt Q9NS69: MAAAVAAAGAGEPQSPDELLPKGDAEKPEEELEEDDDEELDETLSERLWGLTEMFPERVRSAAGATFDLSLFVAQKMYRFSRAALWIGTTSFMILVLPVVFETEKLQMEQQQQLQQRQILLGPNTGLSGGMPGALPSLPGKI
UniProt Q96DX7: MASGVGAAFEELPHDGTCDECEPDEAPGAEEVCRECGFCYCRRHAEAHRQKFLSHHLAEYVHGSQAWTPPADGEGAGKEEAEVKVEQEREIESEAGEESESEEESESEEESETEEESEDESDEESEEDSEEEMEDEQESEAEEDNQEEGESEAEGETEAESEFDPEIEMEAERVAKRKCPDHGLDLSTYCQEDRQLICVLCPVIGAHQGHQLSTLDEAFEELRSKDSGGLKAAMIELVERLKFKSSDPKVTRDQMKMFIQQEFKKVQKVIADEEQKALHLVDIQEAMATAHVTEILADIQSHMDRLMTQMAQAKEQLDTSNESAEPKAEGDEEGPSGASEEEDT
UniProt Q15035: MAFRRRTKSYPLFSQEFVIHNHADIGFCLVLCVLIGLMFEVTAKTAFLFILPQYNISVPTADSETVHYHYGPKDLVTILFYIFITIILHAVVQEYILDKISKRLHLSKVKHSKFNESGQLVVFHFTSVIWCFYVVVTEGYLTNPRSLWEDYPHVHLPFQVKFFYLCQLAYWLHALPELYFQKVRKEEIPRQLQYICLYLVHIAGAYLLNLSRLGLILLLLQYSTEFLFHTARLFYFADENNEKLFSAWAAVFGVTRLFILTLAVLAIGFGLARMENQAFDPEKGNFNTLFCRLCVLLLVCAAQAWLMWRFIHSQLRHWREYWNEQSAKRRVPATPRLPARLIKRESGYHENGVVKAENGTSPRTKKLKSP

[2] = compound: NC(=O)c1cnc(N[C@@H]2CCCC[C@@H]2N)nc1Nc1cccc(-n2nccn2)c1
Outline: as §1

[3] = compound: NC1(c2ccc(-c3nc4ccn5c(=O)[nH]nc5c4cc3-c3ccccc3)cc2)CCC1
Outline: as §1

[4] = compound: NCC(=O)Nc1ccc(-n2nc(C(F)(F)F)cc2-c2ccc3c(ccc4ccccc43)c2)cc1
Outline: as §1

[5] = compound: Nc1ccccc1NC(=O)c1ccc(CNC(=O)OCc2cccnc2)cc1 [entinostat]
Outline: as §1

[6] = compound: O=C(CCCCCCC(=O)Nc1ccccc1)NO [vorinostat]
Outline: as §1

[7] = compound: O=C(CCCCCCNC(=O)c1cnc(N(c2ccccc2)c2ccccc2Cl)nc1)NO [citarinostat]
Outline: as §1

[8] = compound: O=C(O)c1ccc2c(c1)nc(Nc1cccc(Cl)c1)c1ccncc12 [silmitasertib]
Outline: as §1

[9] = compound: O=C1NC(=O)C(c2cnc3ccccn23)=C1c1cn2c3c(cc(F)cc13)CN(C(=O)N1CCCCC1)CC2
Outline: as §1

[10] = compound: c1cc(OCCN2CCCCC2)cc(-c2n[nH]c3ccc(-c4nnc[nH]4)cc23)c1
Outline: as §1

[11] = compound: c1cn2cc(-c3ccc4cn[nH]c4c3)nc(Nc3ccc(N4CCOCC4)cc3)c2n1 [entospletinib]
Outline: as §1

Measured: log2 fold change

TRRAP (UniProt Q9Y4A5)
inactive: [1] 0.02 | [2] -0.013 | [3] -0.042 | [4] 0.008 | [5] -0.037 | [6] -0.02 | [7] 0.012 | [8] 0.018 | [9] -0.011 | [10] -0.044 | [11] -0.012

TOR1A (UniProt O14656)
inactive: [1] -0.012 | [2] -0.022 | [3] -0.093 | [4] 0.003 | [5] -0.005 | [6] -0.019 | [7] 0.042 | [8] 0.025 | [9] 0.004 | [10] -0.009 | [11] 0.002

TOR4A (UniProt Q9NXH8)
inactive: [1] 0.1 | [2] 0.074 | [3] -0.006 | [4] 0.068 | [5] -0.01 | [6] -0.068 | [7] 0.039 | [8] -0.009 | [9] 0.075 | [10] -0.053 | [11] -0.015

TPMT (UniProt P51580)
inactive: [1] -0.059 | [2] -0.019 | [3] -0.048 | [4] 0.099 | [5] 0.012 | [6] -0.06 | [7] 0.026 | [8] 0.012 | [9] -0.039 | [10] 0.003 | [11] -0.035

TOR2A (UniProt Q5JU69)
inactive: [1] -0.064 | [2] 0.021 | [3] -0.046 | [4] -0.005 | [5] -0.055 | [6] 0.033 | [7] -0.112 | [8] -0.011 | [9] -0.008 | [10] -0.146 | [11] 0.011

TPM4 isoform 2 (UniProt P67936)
inactive: [1] 0.063 | [2] 0.137 | [3] -0.071 | [4] 0.211 | [5] 0.122 | [6] -0.063 | [7] -0.037 | [8] -0.009 | [9] -0.013 | [10] -0.028 | [11] 0.047

TPM3 isoform 2 (UniProt P06753)
inactive: [1] -0.024 | [2] 0.031 | [3] -0.004 | [4] 0.046 | [5] 0.016 | [6] -0.079 | [7] -0.054 | [8] -0.011 | [9] -0.005 | [10] 0.046 | [11] 0.033

TPM4, A0A2R8Y5V9
inactive: [1] 0.011 | [2] 0.019 | [3] -0.025 | [4] 0.013 | [5] 0.014 | [6] -0.014 | [7] 0.039 | [8] 0 | [9] -0.028 | [10] -0.013 | [11] 0.01

TOR1AIP1 isoform 3 (UniProt Q5JTV8)
inactive: [1] -0.018 | [2] 0.016 | [3] -0.03 | [4] 0.01 | [5] -0.008 | [6] -0.019 | [7] 0.048 | [8] -0.01 | [9] -0.022 | [10] -0.005 | [11] 0.002

TPP2 (UniProt P29144)
inactive: [1] 0.032 | [2] 0.061 | [3] -0.079 | [4] 0.157 | [5] -0.026 | [6] -0.008 | [7] -0.049 | [8] -0.027 | [9] 0.098 | [10] -0.192 | [11] 0.021

TOMM40L (UniProt Q969M1)
inactive: [1] 0.048 | [2] 0.071 | [3] -0.029 | [4] 0.023 | [5] -0.017 | [6] -0.036 | [7] 0.003 | [8] 0.016 | [9] 0.02 | [10] -0.034 | [11] -0.087

TRIP11 (UniProt Q15643)
inactive: [1] 0.024 | [2] -0.062 | [3] 0.041 | [4] 0.157 | [5] -0.037 | [6] 0.056 | [7] -0.028 | [8] 0.072 | [9] -0.082 | [10] -0.032 | [11] 0.012

TOM1L2 (UniProt Q6ZVM7)
inactive: [1] 0.089 | [2] -0.136 | [4] -0.098 | [5] 0.036 | [9] -0.043

TSEN34 (UniProt Q9BSV6)
inactive: [1] 0.004 | [2] 0.11 | [3] -0.183 | [4] -0.057 | [5] 0.04 | [7] 0.01 | [8] 0.042 | [9] -0.114 | [10] 0.036 | [11] -0.018

TNRC6B (UniProt Q9UPQ9)
inactive: [1] -0.402 | [2] 0.026 | [5] 0.123 | [6] 0.121 | [9] 0.022

TPRA1 (UniProt Q86W33)
inactive: [1] 0.03 | [2] -0.136 | [3] -0.016 | [4] 0.013 | [5] 0.127 | [6] -0.224 | [8] 0.055 | [9] -0.026

TRAPPC4 (UniProt Q9Y296)
inactive: [1] -0.062 | [2] 0.043 | [3] -0.059 | [4] -0.002 | [5] 0.007 | [6] -0.008 | [7] 0.045 | [8] 0.046 | [9] 0.01 | [10] -0.065 | [11] 0.012

TRIM38 (UniProt O00635)
inactive: [1] -0.362 | [2] -0.059 | [3] -0.04 | [4] -0.088 | [5] 0.114 | [6] -0.061 | [8] -0.051 | [9] -0.101

TRPC4AP (UniProt Q8TEL6)
inactive: [1] 0.035 | [2] -0.134 | [3] 0.013 | [4] -0.036 | [5] 0.195 | [6] 0.057 | [8] -0.063 | [9] -0.041

TP53I3 (UniProt Q53FA7)
inactive: [1] -0.005 | [2] -0.015 | [3] 0.004 | [4] -0.063 | [5] -0.02 | [6] -0.02 | [7] 0.015 | [8] 0.014 | [9] -0.017 | [10] 0.015 | [11] -0.069

TOMM7 (UniProt Q9P0U1)
inactive: [1] -0.021 | [3] 0.024 | [4] -0.05 | [5] 0.018 | [6] -0.091 | [7] -0.001 | [8] 0.029 | [9] -0.069 | [10] -0.062 | [11] 0.022

TRAPPC1 (UniProt Q9Y5R8)
inactive: [1] -0.049 | [2] 0.006 | [3] -0.159 | [4] -0.027 | [5] 0.007 | [6] 0.058 | [7] 0.001 | [8] 0.031 | [10] -0.018 | [11] -0.034

TRIO (UniProt O75962)
inactive: [1] -0.093 | [2] -0.042 | [3] -0.173 | [5] -0.029 | [7] -0.022 | [8] -0.042 | [9] -0.067 | [10] 0.071 | [11] 0.169

TRPT1 isoform 4 (UniProt Q86TN4)
inactive: [1] 0.037 | [2] 0.235 | [3] 0 | [5] 0.123 | [7] 0.029 | [8] 0.059 | [10] -0.025

TRIP4 (UniProt Q15650)
inactive: [1] -0.031 | [2] 0.024 | [3] -0.088 | [4] -0.028 | [5] 0.043 | [6] 0.05 | [7] 0.064 | [8] 0.032 | [9] 0.011 | [10] -0.118 | [11] -0.024

TP53BP2 isoform 3 (UniProt Q13625)
inactive: [1] 0.035 | [2] -0.055 | [4] -0.024 | [5] 0.061 | [6] -0.015 | [9] -0.053

TOMM22 (UniProt Q9NS69)
inactive: [1] 0.116 | [2] -0.012 | [3] 0.006 | [4] 0.047 | [5] 0.009 | [6] -0.184 | [7] 0.028 | [8] 0.027 | [9] -0.055 | [10] -0.065 | [11] 0.011

TRIM23 (UniProt P36406)
inactive: [1] -0.025 | [3] -0.02 | [4] -0.083 | [5] -0.01 | [6] 0.06 | [7] 0.015 | [8] -0.044 | [10] -0.026

Taken from above (nine entries):
TRIM38 (UniProt O00635)
inactive: [1] -0.362 | [2] -0.059 | [3] -0.04 | [4] -0.088 | [5] 0.114 | [6] -0.061 | [8] -0.051 | [9] -0.101

TRPC4AP (UniProt Q8TEL6)
inactive: [1] 0.035 | [2] -0.134 | [3] 0.013 | [4] -0.036 | [5] 0.195 | [6] 0.057 | [8] -0.063 | [9] -0.041

TP53I3 (UniProt Q53FA7)
inactive: [1] -0.005 | [2] -0.015 | [3] 0.004 | [4] -0.063 | [5] -0.02 | [6] -0.02 | [7] 0.015 | [8] 0.014 | [9] -0.017 | [10] 0.015 | [11] -0.069

TOMM7 (UniProt Q9P0U1)
inactive: [1] -0.021 | [3] 0.024 | [4] -0.05 | [5] 0.018 | [6] -0.091 | [7] -0.001 | [8] 0.029 | [9] -0.069 | [10] -0.062 | [11] 0.022

TRAPPC1 (UniProt Q9Y5R8)
inactive: [1] -0.049 | [2] 0.006 | [3] -0.159 | [4] -0.027 | [5] 0.007 | [6] 0.058 | [7] 0.001 | [8] 0.031 | [10] -0.018 | [11] -0.034

TRIO (UniProt O75962)
inactive: [1] -0.093 | [2] -0.042 | [3] -0.173 | [5] -0.029 | [7] -0.022 | [8] -0.042 | [9] -0.067 | [10] 0.071 | [11] 0.169

TRPT1 isoform 4 (UniProt Q86TN4)
inactive: [1] 0.037 | [2] 0.235 | [3] 0 | [5] 0.123 | [7] 0.029 | [8] 0.059 | [10] -0.025

TRIP4 (UniProt Q15650)
inactive: [1] -0.031 | [2] 0.024 | [3] -0.088 | [4] -0.028 | [5] 0.043 | [6] 0.05 | [7] 0.064 | [8] 0.032 | [9] 0.011 | [10] -0.118 | [11] -0.024

TP53BP2 isoform 3 (UniProt Q13625)
inactive: [1] 0.035 | [2] -0.055 | [4] -0.024 | [5] 0.061 | [6] -0.015 | [9] -0.053

Additional results:

TRIM44 (UniProt Q96DX7)
inactive: [1] 0 | [2] -0.037 | [3] -0.048 | [4] 0.02 | [5] -0.048 | [6] 0.015 | [7] 0.008 | [8] 0.045 | [10] -0.083

TRAM2 (UniProt Q15035)
inactive: [1] -0.162 | [2] 0.031 | [4] -0.159 | [5] -0.059 | [7] 0.042 | [10] -0.158 | [11] -0.037

TOR1AIP1 (UniProt Q5JTV8)
inactive: [1] 0.026 | [2] -0.061 | [3] 0.039 | [5] -0.061 | [6] 0.098 | [7] 0.025 | [8] 0.016 | [9] -0.156 | [10] -0.118 | [11] 0.053

Reference: the supplement of paper PMC10849652
